Results taken from patent US20260259169A1, “BETA-LACTAMASE SUBSTRATE COMPOUNDS AND ELECTROCHEMICAL DETECTION METHODS USING THEM” (priority 2023, published 2026).

Tested on: beta-lactamases
Assay: Cyclic voltammetry in the presence and absence of beta-lactamases
Format: biochemical
Settings: 1 entire voltage cycle; signal only in positive samples

SMILES: CC(C)(ON=C(C(=O)N[C@@H]1C(=O)N2C(C(=O)O)=C(C=Cc3ccc([N+](=O)[O-])cc3[N+](=O)[O-])CS[C@H]12)c1csc(N)n1)C(=O)O.O=C(O)C(F)(F)F [HMRZ-86, reference compound]
- potential of the oxidation signal specific for the presence of beta-lactamases: +0.3 V vs. Ag/AgCl
